# Data as given in the supplement of paper PMC4604168 (melanoma cell lines).
# This is one part of the list. Repeats are few or missing, and single values can be far off.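 Imaging used 1,536-well plates; nuclei positive for cleaved PARP by antibody were divided by total DNA-stained nuclei to yield the apoptosis fraction. Doses for screening kept most cells viable, and cell lines differ markedly in resting and induced cleaved-PARP levels.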
# Key:
# Experiment in all cases: cleaved PARP positive nuclei fraction relative to DMSO control; melanoma cells; higher = more apoptosis
# Conditions in all cases: library dose: low library concentration; 72 h
# 501Mel = system: 501Mel
# A101D = system: A101D
# A2058 = system: A2058
# A375 = system: A375
# C32 = system: C32
# CBRC008 = system: CBRC008 (line from a melanoma biopsy)
# CBRC014 = system: CBRC014 (line from a melanoma biopsy)
# CBRC016 = system: CBRC016 (line from a melanoma biopsy)
# CBRC017 = system: CBRC017 (line from a melanoma biopsy)
# CBRC034 = system: CBRC034 (line from a melanoma biopsy)
# COLO792 = system: COLO792
# COLO800 = system: COLO800
# COLO829 = system: COLO829
# G361 = system: G361
# IPC-298 = system: IPC-298
# IST-MEL1 = system: IST-MEL1
# LB2518-MEL = system: LB2518-MEL
# LOXIMVI = system: LOXIMVI
# MEL-HO = system: MEL-HO
SMILES,cleaved PARP positive nuclei fraction (501Mel) [%],cleaved PARP positive nuclei fraction (A101D) [%],cleaved PARP positive nuclei fraction (A2058) [%],cleaved PARP positive nuclei fraction (A375) [%],cleaved PARP positive nuclei fraction (C32) [%],cleaved PARP positive nuclei fraction (CBRC008) [%],cleaved PARP positive nuclei fraction (CBRC014) [%],cleaved PARP positive nuclei fraction (CBRC016) [%],cleaved PARP positive nuclei fraction (CBRC017) [%],cleaved PARP positive nuclei fraction (CBRC034) [%],cleaved PARP positive nuclei fraction (COLO792) [%],cleaved PARP positive nuclei fraction (COLO800) [%],cleaved PARP positive nuclei fraction (COLO829) [%],cleaved PARP positive nuclei fraction (G361) [%],cleaved PARP positive nuclei fraction (IPC-298) [%],cleaved PARP positive nuclei fraction (IST-MEL1) [%],cleaved PARP positive nuclei fraction (LB2518-MEL) [%],cleaved PARP positive nuclei fraction (LOXIMVI) [%],cleaved PARP positive nuclei fraction (MEL-HO) [%]
"O=c1[nH]nc(Sc2ncc([N+](=O)[O-])s2)n1-c1ccc2c(c1)OCCO2 + Cn1sc(=O)n(Cc2ccccc2)c1=O [TDZD-8] (first compound 0.2 µM, partner dose 0.4 µM)",99.1,127,86.9,102,171,88.5,105,55.9,116,30.4,117,80.9,125,74.7,59.1,138,138,98.3,92.2
"O=C(/C=C/c1cccnc1)NCCCCC1CCN(C(=O)c2ccccc2)CC1 + CCCCCCCCc1ccc(CCC(N)(CO)CO)cc1 [fingolimod] (first compound 0.01 µM, partner dose 2 µM)",148,200,95.9,219,82.9,4030,109,797,527,1460,616,299,358,4120,314,45.7,132,240,132
"O=C(Nc1cc(C(F)(F)F)cc(C(F)(F)F)c1)c1cc(Cl)ccc1O + CC1(C)CCC(c2ccc(Cl)cc2)=C(CN2CCN(c3ccc(C(=O)NS(=O)(=O)c4ccc(N[C@H](CCN5CCOCC5)CSc5ccccc5)c(S(=O)(=O)C(F)(F)F)c4)cc3)CC2)C1 [ABT263] (first compound 0.016 µM, partner dose 0.4 µM)",179,160,192,267,105,519,305,1070,474,162,223,43.8,48.3,86.1,299,156,52.2,124,170
"Cc1cc(Nc2cc(N3CCN(C)CC3)nc(Sc3ccc(NC(=O)C4CC4)cc3)n2)n[nH]1 [Tozasertib] + Cc1cn(-c2cc(NC(=O)c3ccc(C)c(Nc4nccc(-c5cccnc5)n4)c3)cc(C(F)(F)F)c2)cn1 [nilotinib] (first compound 0.006 µM, partner dose 0.2 µM)",52,142,120,451,67.9,23.6,92.4,25.4,118,61.7,50.5,77.1,63.8,237,89.1,208,53.5,63.1,45.8
"CCCCCCCCCCCCCCCCCCOP(=O)([O-])OC1CC[N+](C)(C)CC1 [Perifosine] + Cc1ccc(Nc2nccc(N(C)c3ccc4c(C)n(C)nc4c3)n2)cc1S(N)(=O)=O [Pazopanib] (first compound 0.4 µM, partner dose 0.4 µM)",97.7,93.7,255,250,65.9,125,135,79.3,277,77.5,135,100,158,109,51.5,87.6,95.4,116,156
"Cc1cc(Nc2cc(N3CCN(C)CC3)nc(Sc3ccc(NC(=O)C4CC4)cc3)n2)n[nH]1 [Tozasertib] + COc1cc([C@@H]2c3cc4c(cc3[C@@H](O[C@@H]3O[C@@H]5CO[C@@H](C)O[C@H]5[C@H](O)[C@H]3O)[C@H]3COC(=O)[C@H]23)OCO4)cc(OC)c1O [etoposide] (first compound 0.006 µM, partner dose 0.02 µM)",82.6,151,143,77.9,82,196,94.4,68.9,91.7,76,78.8,157,91.7,129,43.7,63.1,201,88.7,282
"Cc1cc(Nc2cc(N3CCN(C)CC3)nc(Sc3ccc(NC(=O)C4CC4)cc3)n2)n[nH]1 [Tozasertib] + CCCCCCCCCCCCCCCCCCOP(=O)([O-])OC1CC[N+](C)(C)CC1 [Perifosine] (first compound 0.006 µM, partner dose 0.4 µM)",85.3,97.8,115,119,76.4,137,71.9,28.9,83.1,32.1,157,224,240,45.5,85.7,65.2,91.4,35.8,13.6
"Cc1cc(Nc2cc(N3CCN(C)CC3)nc(Sc3ccc(NC(=O)C4CC4)cc3)n2)n[nH]1 [Tozasertib] + NC1(c2ccc(-c3nc4ccn5c(=O)[nH]nc5c4cc3-c3ccccc3)cc2)CCC1 [MK2206] (first compound 0.006 µM, partner dose 0.4 µM)",109,47.6,80.1,169,74.6,97.3,86.4,65.1,90,83,141,149,110,110,122,45.2,126,135,237
"O=C(Nc1cc(C(F)(F)F)cc(C(F)(F)F)c1)c1cc(Cl)ccc1O + CS(=O)(=O)CCNCc1ccc(-c2ccc3ncnc(Nc4ccc(OCc5cccc(F)c5)c(Cl)c4)c3c2)o1 [lapatinib] (first compound 0.016 µM, partner dose 0.8 µM)",59.1,169,96.6,184,148,38.1,115,103,245,127,63.8,126,101,29.4,60.6,136,94,121,128
"O=C(Nc1cc(C(F)(F)F)cc(C(F)(F)F)c1)c1cc(Cl)ccc1O + Cc1cc(Nc2cc(N3CCN(C)CC3)nc(/C=C/c3ccccc3)n2)n[nH]1 [ENMD2076] (first compound 0.016 µM, partner dose 0.04 µM)",49.7,104,140,152,77.2,44.8,96,256,84.2,104,94.8,101,150,60.6,28.2,72.2,145,65.3,22.1
"O=c1[nH]nc(Sc2ncc([N+](=O)[O-])s2)n1-c1ccc2c(c1)OCCO2 + C[C@]1(c2nc3c(C(N)=O)cccc3[nH]2)CCCN1 [Veliparib] (first compound 0.2 µM, partner dose 1.4 µM)",91.1,93.8,202,112,127,71.5,75,96.2,85.8,79.5,47.6,125,147,87.1,85.1,61.7,90.9,47.6,137
"CC[C@]1(O)C[C@H]2CN(CCc3c([nH]c4ccccc34)[C@@](C(=O)OC)(c3cc4c(cc3OC)N(C=O)[C@H]3[C@@](O)(C(=O)OC)[C@H](OC(C)=O)[C@]5(CC)C=CCN6CC[C@]43[C@@H]65)C2)C1 [vincristine] + Clc1ccc(Nc2nnc(Cc3ccncc3)c3ccccc23)cc1 [vatalanib] (first compound 0.0001 µM, partner dose 2 µM)",123,67.9,2570,539,360,178,152,186,136,38.2,111,123,140,92.2,60,69.7,129,82.2,104
"CC[C@]1(O)C[C@H]2CN(CCc3c([nH]c4ccccc34)[C@@](C(=O)OC)(c3cc4c(cc3OC)N(C=O)[C@H]3[C@@](O)(C(=O)OC)[C@H](OC(C)=O)[C@]5(CC)C=CCN6CC[C@]43[C@@H]65)C2)C1 [vincristine] + COc1cc([C@@H]2c3cc4c(cc3[C@@H](O[C@@H]3O[C@@H]5CO[C@@H](C)O[C@H]5[C@H](O)[C@H]3O)[C@H]3COC(=O)[C@H]23)OCO4)cc(OC)c1O [etoposide] (first compound 0.0001 µM, partner dose 0.02 µM)",104,106,1040,93.8,78.8,337,107,283,143,163,104,78.7,126,171,138,69.1,571,203,192
"CC[C@]1(O)C[C@H]2CN(CCc3c([nH]c4ccccc34)[C@@](C(=O)OC)(c3cc4c(cc3OC)N(C=O)[C@H]3[C@@](O)(C(=O)OC)[C@H](OC(C)=O)[C@]5(CC)C=CCN6CC[C@]43[C@@H]65)C2)C1 [vincristine] + Nc1ccn([C@@H]2O[C@H](CO)[C@@H](O)C2(F)F)c(=O)n1 [gemcitabine] (first compound 0.0001 µM, partner dose 0.0004 µM)",114,66.2,228,296,69.2,85.1,102,73.3,138,334,111,83.7,85.8,130,90.3,314,55.2,186,134
"Cc1cn(-c2cc(NC(=O)c3ccc(C)c(Nc4nccc(-c5cccnc5)n4)c3)cc(C(F)(F)F)c2)cn1 [nilotinib] + Cn1c(=O)n(-c2ccc(C(C)(C)C#N)cc2)c2c3cc(-c4cnc5ccccc5c4)ccc3ncc21 [NVP-BEZ235] (first compound 0.2 µM, partner dose 0.004 µM)",152,97.6,201,168,82.1,41.4,86.8,79.9,96.2,55.9,136,132,72.8,53.8,173,65.6,111,105,76.6

# Record cards, from the list above. Values in the order: cleaved PARP positive nuclei fraction (501Mel) [%]	cleaved PARP positive nuclei fraction (A101D) [%]	cleaved PARP positive nuclei fraction (A2058) [%]	cleaved PARP positive nuclei fraction (A375) [%]	cleaved PARP positive nuclei fraction (C32) [%]	cleaved PARP positive nuclei fraction (CBRC008) [%]	cleaved PARP positive nuclei fraction (CBRC014) [%]	cleaved PARP positive nuclei fraction (CBRC016) [%]	cleaved PARP positive nuclei fraction (CBRC017) [%]	cleaved PARP positive nuclei fraction (CBRC034) [%]	cleaved PARP positive nuclei fraction (COLO792) [%]	cleaved PARP positive nuclei fraction (COLO800) [%]	cleaved PARP positive nuclei fraction (COLO829) [%]	cleaved PARP positive nuclei fraction (G361) [%]	cleaved PARP positive nuclei fraction (IPC-298) [%]	cleaved PARP positive nuclei fraction (IST-MEL1) [%]	cleaved PARP positive nuclei fraction (LB2518-MEL) [%]	cleaved PARP positive nuclei fraction (LOXIMVI) [%]	cleaved PARP positive nuclei fraction (MEL-HO) [%]
# Cc1cc(Nc2cc(N3CCN(C)CC3)nc(Sc3ccc(NC(=O)C4CC4)cc3)n2)n[nH]1 [Tozasertib] + Cc1cn(-c2cc(NC(=O)c3ccc(C)c(Nc4nccc(-c5cccnc5)n4)c3)cc(C(F)(F)F)c2)cn1 [nilotinib] (first compound 0.006 µM, partner dose 0.2 µM) in the list: 52	142	120	451	67.9	23.6	92.4	25.4	118	61.7	50.5	77.1	63.8	237	89.1	208	53.5	63.1	45.8
# O=C(Nc1cc(C(F)(F)F)cc(C(F)(F)F)c1)c1cc(Cl)ccc1O + CS(=O)(=O)CCNCc1ccc(-c2ccc3ncnc(Nc4ccc(OCc5cccc(F)c5)c(Cl)c4)c3c2)o1 [lapatinib] (first compound 0.016 µM, partner dose 0.8 µM) in the list: 59.1	169	96.6	184	148	38.1	115	103	245	127	63.8	126	101	29.4	60.6	136	94	121	128
